Patent US8598314B2 (priority 2007, dated 2013)

Columns and labels:
[1] = general procedure: Fmoc solid-phase peptide synthesis; modified trityl resin; p-nitrophenyl carbonate Wang resin; Rink amide resin; HBTU/HOBt; settings: whole synthesis
[2] = general procedure: Fmoc solid-phase peptide synthesis; p-nitrophenyl carbonate Wang resin; HBTU/HOBt; settings: whole synthesis, scale 100 umol

Substance: GLP-1(7-37)-γ-Abu-N^ε2Lys-(Pyr)-WAP-OH
- isolated mass ([1]; scale 340 umol): 8.5 mg
- isolated yield ([1]; scale 340 umol): 2.1% yield

Substance: [^14Leu,^25Phe]Exendin-4(1-28)-Gly-Gly-CONH-Lisinopril diacid
- isolated mass ([1]; scale 110 umol): 23.3 mg
- isolated yield ([1]; scale 110 umol): 5.7%

Substance: [^14Leu,^25Phe]Exendin-4(1-28)-γ-Abu-CONH-lisinopril diacid
- isolated mass ([1]; scale 110 umol): 21 mg
- isolated yield ([1]; scale 110 umol): 5.5%

Substance: [^14Leu,^28Gln]Exendin-4-(1-32)-fGLP-1-(33-37)-miniPEG-(S)-2,6-diamino-1-(pyrrolidin-2-cyano-1-yl)hexan-1- amide
- isolated mass [2]: 49.5 mg
- isolated yield [2]: 16%
